Experiment [1] addresses BRD8 (mouse (in mouse ESCs and EpiSCs)) (UniProt Q8R3B7). Put plainly: affinity purification with mass spectrometry.
Experiment [2] has the same target. As to the kind of experiment: affinity purification with mass spectrometry. This is another data set of the same source.

By UniProt entry, the sequences of proteins in these tests, tags left out.
UniProt Q8R3B7: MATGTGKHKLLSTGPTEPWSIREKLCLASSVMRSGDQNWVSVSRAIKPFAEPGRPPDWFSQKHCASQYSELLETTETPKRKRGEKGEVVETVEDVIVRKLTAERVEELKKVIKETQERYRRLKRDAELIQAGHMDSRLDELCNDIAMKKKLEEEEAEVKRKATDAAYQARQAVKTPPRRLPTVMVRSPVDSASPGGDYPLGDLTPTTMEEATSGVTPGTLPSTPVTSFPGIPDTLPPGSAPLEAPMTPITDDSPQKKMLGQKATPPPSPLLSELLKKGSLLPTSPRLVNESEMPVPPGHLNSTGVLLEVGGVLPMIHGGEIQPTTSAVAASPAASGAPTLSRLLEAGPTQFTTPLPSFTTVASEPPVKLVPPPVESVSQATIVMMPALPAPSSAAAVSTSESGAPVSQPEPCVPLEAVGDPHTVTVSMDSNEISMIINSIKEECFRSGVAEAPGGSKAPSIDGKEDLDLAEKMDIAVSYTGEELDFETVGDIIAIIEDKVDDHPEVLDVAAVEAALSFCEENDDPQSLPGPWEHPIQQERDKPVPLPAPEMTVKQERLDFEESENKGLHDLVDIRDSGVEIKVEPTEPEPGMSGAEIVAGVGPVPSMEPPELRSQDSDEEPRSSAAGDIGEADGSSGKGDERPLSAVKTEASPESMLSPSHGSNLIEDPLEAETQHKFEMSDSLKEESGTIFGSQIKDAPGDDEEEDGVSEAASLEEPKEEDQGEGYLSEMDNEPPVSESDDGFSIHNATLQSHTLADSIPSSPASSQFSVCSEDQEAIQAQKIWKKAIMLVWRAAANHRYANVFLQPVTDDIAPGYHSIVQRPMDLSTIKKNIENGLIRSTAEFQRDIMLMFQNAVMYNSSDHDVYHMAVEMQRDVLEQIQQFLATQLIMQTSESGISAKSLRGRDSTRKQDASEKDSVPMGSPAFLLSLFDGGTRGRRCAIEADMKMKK
UniProt Q62520: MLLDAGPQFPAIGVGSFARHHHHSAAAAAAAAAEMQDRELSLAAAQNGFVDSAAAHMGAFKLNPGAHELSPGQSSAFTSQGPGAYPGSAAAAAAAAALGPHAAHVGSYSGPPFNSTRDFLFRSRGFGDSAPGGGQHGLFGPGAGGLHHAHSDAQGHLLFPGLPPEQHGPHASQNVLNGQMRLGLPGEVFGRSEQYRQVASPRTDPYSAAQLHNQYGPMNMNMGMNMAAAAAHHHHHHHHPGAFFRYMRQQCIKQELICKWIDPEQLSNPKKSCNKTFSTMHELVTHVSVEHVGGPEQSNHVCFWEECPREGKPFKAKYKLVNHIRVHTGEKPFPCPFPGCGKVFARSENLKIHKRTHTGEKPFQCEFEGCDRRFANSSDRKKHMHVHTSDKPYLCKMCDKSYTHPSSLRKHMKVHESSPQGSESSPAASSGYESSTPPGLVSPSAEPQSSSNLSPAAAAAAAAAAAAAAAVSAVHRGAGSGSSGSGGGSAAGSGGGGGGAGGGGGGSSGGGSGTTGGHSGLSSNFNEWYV
UniProt Q9R0Q4: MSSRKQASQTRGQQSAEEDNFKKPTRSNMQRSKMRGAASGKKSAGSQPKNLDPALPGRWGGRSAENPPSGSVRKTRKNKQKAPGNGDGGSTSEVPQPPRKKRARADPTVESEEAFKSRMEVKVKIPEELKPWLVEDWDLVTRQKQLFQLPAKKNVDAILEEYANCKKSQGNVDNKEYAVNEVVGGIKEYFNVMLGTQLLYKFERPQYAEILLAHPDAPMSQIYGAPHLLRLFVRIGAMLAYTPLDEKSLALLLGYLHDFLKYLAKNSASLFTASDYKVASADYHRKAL
UniProt P60762: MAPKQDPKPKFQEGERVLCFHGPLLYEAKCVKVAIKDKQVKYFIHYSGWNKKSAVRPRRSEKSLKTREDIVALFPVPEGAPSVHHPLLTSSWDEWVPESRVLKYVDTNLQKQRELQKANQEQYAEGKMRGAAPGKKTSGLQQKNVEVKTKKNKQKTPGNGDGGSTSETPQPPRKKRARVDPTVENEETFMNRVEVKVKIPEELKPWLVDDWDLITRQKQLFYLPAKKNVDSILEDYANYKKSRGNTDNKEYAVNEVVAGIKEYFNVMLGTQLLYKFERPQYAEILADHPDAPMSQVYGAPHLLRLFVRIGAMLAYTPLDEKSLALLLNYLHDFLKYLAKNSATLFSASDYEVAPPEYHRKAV

This passage reports binding results from paper doi:10.1101/2024.03.20.585857.

Read-outs that look alike come from different tables or passages of the source. These are yes or no findings as the source states them, for the method shown. Binding seen in cells or lysates may run through a third protein. Here binding means that the protein was enriched with, or labelled near, the bait; the list need not be complete. A no says only that the protein was not detected with the bait.

As to ZIC2 (from UniProt Q62520 1-530), the binding entry in experiment [1] and in experiment [2] was “no binding” throughout.
Regarding MORF4L2 (from UniProt Q9R0Q4 1-288), the binding result in experiment [1] and in experiment [2] was “binds” throughout.
Consider MORF4L1 (from UniProt P60762 1-362), for which the binding result in experiment [1] and in experiment [2] was “binds” in each case.
